PubChem BioAssay AID686943 – Drosophila RNAi Screening Center, 2013
Aim: 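Knockdowns that increase or decrease active ERK after insulin receptor stimulation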 (primary screen). Cells: Drosophila S2R+ haemocyte-like cells expressing YFP-tagged ERK (Rolled). Reagents: long dsRNA against Drosophila genes. Challenge: insulin stimulation versus unstimulated cells; dose and duration not given. Measurement: 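Per-plate z-scores of phospho-ERK immunostaining normalised to YFP-tagged ERK, measured with and without insulin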. Reading the numbers: replicate 1, z-score of dpERK with insulin and replicate 2, z-score of dpERK with insulin: higher = more active ERK per ERK-YFP after insulin; replicate 1, z-score of dpERK under basal conditions: higher = more basal active ERK per ERK-YFP.
In all, the deposit lists about 23,000 reagents; this is an unselected part of those with a known target gene and a result. 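Extra replicates exist only for a retested subset of genes; insulin dose and duration not given; both raised and lowered dpERK matter.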 Not all columns of the deposit are shown. Reagent sequences are not shown. Not stated in the record: the amount of reagent, the time to read-out.

| target | dsRNA | replicate 1, z-score of dpERK with insulin | replicate 2, z-score of dpERK with insulin | replicate 1, z-score of dpERK under basal conditions |
| --- | --- | --- | --- | --- |
| CG14247 | DRSC14742 | 1.53 | -0.15 | -0.36 |
| l(2)41Ab (lethal (2) 41Ab) | DRSC21007 | 0.38 | -1.35 | 0.8 |
| CycB (Cyclin B) | DRSC04605 | -0.43 | -0.31 | -0.72 |
| CG14540 | DRSC14884 | -0.62 | -2.42 | -1.66 |
| CG2003 | DRSC15411 | 0.59 | 0.58 | -0.24 |
| CG15602 | DRSC19671 | -0.23 | 0.08 | -0.47 |
| CG31021 | DRSC22319 | -0.02 | -1.72 | 0.14 |

Next part, starting with the last 2 of the part before.
| target | dsRNA | replicate 1, z-score of dpERK with insulin | replicate 2, z-score of dpERK with insulin | replicate 1, z-score of dpERK under basal conditions |
| --- | --- | --- | --- | --- |
| CG15602 | DRSC19671 | -0.23 | 0.08 | -0.47 |
| CG31021 | DRSC22319 | -0.02 | -1.72 | 0.14 |
| l(2)gl (lethal (2) giant larvae) | DRSC00825 | -0.17 | -0.68 | 0.03 |
| cv (crossveinless) | DRSC17833 | -0.2 | 0.13 | 1.17 |
| CG13376 | DRSC17901 | 1.67 | -0.38 | 0.81 |
| Alg1 (ALG1, chitobiosyldiphosphodolichol beta-mannosyltransferase) | DRSC15297 | 0.08 | -0.06 | 0 |
| eca (eclair) | DRSC22290 | -0.9 | -1.71 | 1.51 |
| Cyp9b1 (Cytochrome P450 9b1) | DRSC07389 | -0.08 | 0.04 | 0.25 |
| CG8460 | DRSC03090 | -0.32 | -0.22 | -0.58 |
| CG10584 | DRSC11624 | 0.27 | -0.09 | 2.03 |
| CG14957 | DRSC08416 | 0.56 | 0.43 | -0.49 |
| aqz (aaquetzalli) | DRSC16570 | 0.4 | 1.23 | 0.72 |
| l(3)L1231 (lethal (3) L1231) | DRSC16323 | 0.67 | 0.04 | 0.03 |
| CG17648 | DRSC00508 | 0.59 | 0.31 | -0.53 |
| CG32811 | DRSC22649 | 0.79 | -0.04 | -0.45 |
| CG9676 | DRSC20204 | 0.14 | 0.43 | 0.88 |
| Not1 | DRSC06787 | -1.61 | -2.33 | 1.62 |
| Not1 | DRSC06794 | -3.32 | -2.09 | 0.99 |
